“And” between values parts separate entries of the source, which are not always exact repeats. Equal entries are not always repeated. Structures can show the parent of a compound that is named as a salt. ± gives the standard deviation of the averaged measurements. The list shows a part of the results. Part of the spread comes from offsets between plates or batches.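 Culture-activated primary human stellate myofibroblasts, where regained lipid droplets signal inactivation. Value: share of Hoechst-counted cells above a per-plate Bodipy cutoff, in duplicate wells, with DMSO negative and nortriptyline positive controls on each plate. Hits: a control-normalized score above the plate's top-tenth-percentile nortriptyline wells, or one of a plate's three best wells. Final well concentrations are not given.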
System: primary human hepatic stellate cells (donor 1)
Test: percent Bodipy-positive cells; higher = more lipid droplet accumulation
Settings: 48 h
[1] = library stock concentration: 10 mM
[2] = library stock concentration: 3.33 mM
[3] = library stock concentration: 1 mM
[4] = library stock concentration: 5.9 mM
[5] = library stock concentration: 4.9 mM
[6] = library stock concentration: 80 uM
[7] = library stock concentration: 2 mM

Which “percent Bodipy-positive cells” value [1] does the source give for `CO[C@@H]1[C@@H](O[C@@H]2O[C@H](C)[C@@H](O[C@H]3C[C@@](C)(O)[C@@H](OC(=O)CC(C)C)[C@H](C)O3)[C@H](N(C)C)[C@H]2O)[C@@H](CC=O)C[C@@H](C)[C@@H](O)/C=C/C=C/C[C@@H](C)OC(=O)C[C@H]1O` here?
Its value is 18.7 ± 4%.

Which “percent Bodipy-positive cells” value [2] does the source give for `O=C(c1cc2cc(O)ccc2[nH]1)c1cc2cc(O)ccc2[nH]1` [Flt-3 Inhibitor II] here?
Its value is 11 ± 1.1%.

How did the “percent Bodipy-positive cells” value turn out when `CC[N+](C)(C)c1cccc(O)c1` [Edrophonium chloride] was run?
Its value is 21.7 ± 2.2%.

What about the “percent Bodipy-positive cells” value (library stock concentration: 9.9 mM) of the same molecule?
The value was 10.6 ± 4.6%.

And the “percent Bodipy-positive cells” value [1]?
Its value is 56% and 37.7%.

For `CO[C@@H](C(=O)N1Cc2[nH]nc(NC(=O)c3ccc(N4CCN(C)CC4)cc3)c2C1)c1ccccc1`, which “percent Bodipy-positive cells” value [1] is on record?
Its value is 89.9 ± 1.2%.

For `NCCc1c[nH]cn1` [Histamine 2HCl], which “percent Bodipy-positive cells” value [2] is on record?
Its value is 13.1 ± 8.1%.

And the “percent Bodipy-positive cells” value [1]?
The value was 27.7 ± 12%.

With `NCCc1c[nH]cn1` [Histamine] as the molecule, how does the “percent Bodipy-positive cells” value (library stock concentration: 45 mM) read?
Its value is 15.6 ± 0.5%.

With `NCCc1c[nH]cn1` [Histamine dihydrochloride] as the molecule, how does the “percent Bodipy-positive cells” value (library stock concentration: 10.9 mM) read?
Its value is 4.44 ± 1.7%.

Which “percent Bodipy-positive cells” value [3] does the source give for `CCCCCC(O)/C=C/C1C(O)CC(O)C1CCCCC(CC(=O)O)OC` (stereo not drawn) [3-methoxy Prostaglandin F1.alpha.] here?
Its value is 18.6 ± 5.8%.

Which “percent Bodipy-positive cells” value does the source give for `CCCOc1cc(N)ccc1C(=O)OCCN(CC)CC` [Propoxycaine hydrochloride] here?
Its value is 8.7 ± 6.2%.

How did the “percent Bodipy-positive cells” value [2] turn out when `OC(Cn1cncn1)(Cn1cncn1)c1ccc(F)cc1F` [Fluconazole] was run?
Its value is 7.09 ± 3.8%.

For `Cc1ncc(C[n+]2csc(CCO)c2C)c(N)n1` [Thiamine], which “percent Bodipy-positive cells” value [4] is on record?
The value was 14.2 ± 3.8%.

Which “percent Bodipy-positive cells” value does the source give for `Cc1ncc(C[n+]2csc(CCO)c2C)c(N)n1` [Thiamine hydrochloride] here?
The value was 21.4 ± 1.6%.

With `CC(C)c1c(C(=O)Nc2ccccc2)c(-c2ccccc2)c(-c2ccc(F)cc2)n1CC[C@@H](O)C[C@@H](O)CC(=O)O` [Atorvastatin calcium salt trihydrate] as the molecule, how does the “percent Bodipy-positive cells” value [1] read?
Its value is 88 ± 6.6%.

For `CC(C)c1c(C(=O)Nc2ccccc2)c(-c2ccccc2)c(-c2ccc(F)cc2)n1CC[C@@H](O)C[C@@H](O)CC(=O)O` [Atorvastatin calcium], which “percent Bodipy-positive cells” value [1] is on record?
The value was 44.5 ± 8.7%.

Which “percent Bodipy-positive cells” value [2] does the source give for `CC(C)c1c(C(=O)Nc2ccccc2)c(-c2ccccc2)c(-c2ccc(F)cc2)n1CC[C@@H](O)C[C@@H](O)CC(=O)O` [Atorvastatin Calcium] here?
Its value is 30.3 ± 1.8%.

What about the “percent Bodipy-positive cells” value [1] of the same molecule?
The value was 44.2 ± 6.3%.

How did the “percent Bodipy-positive cells” value [5] turn out when `CC(=O)OCC(=O)[C@@]1(O)CC[C@H]2[C@@H]3CCC4=CC(=O)CC[C@]4(C)[C@H]3[C@@H](O)C[C@@]21C` [Hydrocortisone acetate] was run?
The value was 2.21 ± 1.3%.

What about the “percent Bodipy-positive cells” value [1] of the same molecule?
The value was 8.88 ± 1.2%.

How did the “percent Bodipy-positive cells” value [1] turn out when `CC(=O)OCC(=O)[C@@]1(O)CC[C@H]2[C@@H]3CCC4=CC(=O)CC[C@]4(C)[C@H]3[C@@H](O)C[C@@]21C` [Cortell] was run?
Its value is 28 ± 5.1%.

`CC(=O)OCC(=O)[C@@]1(O)CC[C@H]2[C@@H]3CCC4=CC(=O)CC[C@]4(C)[C@H]3[C@@H](O)C[C@@]21C` [Hydrocortisone 21-acetate] was tested. Which “percent Bodipy-positive cells” value [5] did it give?
The value was 7.82 ± 4.9%.

Which “percent Bodipy-positive cells” value does the source give for `CCN[C@H]1CN(CCCOC)S(=O)(=O)c2sc(S(N)(=O)=O)cc21` [Brinzolamide] here?
Its value is 32.8 ± 5.3%.

And the “percent Bodipy-positive cells” value [2]?
The value was 8.78 ± 3.5%.

And the “percent Bodipy-positive cells” value [1]?
The value was 23.5 ± 3%.

Which “percent Bodipy-positive cells” value [1] does the source give for `CN1CCN(C2=Nc3cc(Cl)ccc3Nc3ccccc32)CC1` [Clozapine] here?
The value was 91.25 ± 0.23%.

For `NS(=O)(=O)c1cc(C2(O)NC(=O)c3ccccc32)ccc1Cl` (centres undefined) [Chlorthalidone], which “percent Bodipy-positive cells” value is on record?
The value was 31.7 ± 6.6%.

And the “percent Bodipy-positive cells” value [4]?
Its value is 2.26 ± 0.86%.

What about the “percent Bodipy-positive cells” value [1] of the same molecule?
Its value is 6.86% and 28.9%.

With `O=C(O)Cc1c2ccccc2n2c1[nH]c(=O)c1ccccc12` as the molecule, how does the “percent Bodipy-positive cells” value [6] read?
The value was 10.5 ± 0.92%.

And the “percent Bodipy-positive cells” value (library stock concentration: 400 uM)?
Its value is 9.27 ± 1.4%.

What about the “percent Bodipy-positive cells” value [7] of the same molecule?
Its value is 12.6 ± 3.4%.

And the “percent Bodipy-positive cells” value [1]?
Its value is 9 ± 6.5%.

For `COc1ccc(-c2cc(=O)c3c(O)c(OC)c(OC)cc3o2)cc1O` [Eupatorin], which “percent Bodipy-positive cells” value [1] is on record?
Its value is 86.5 ± 3.3%.

Which “percent Bodipy-positive cells” value does the source give for `C=CC(N)CCC(=O)O` (centres undefined) [Vigabatrin] here?
The value was 31.4 ± 3.5%.

What about the “percent Bodipy-positive cells” value (library stock concentration: 15.5 mM) of the same molecule?
The value was 1.65 ± 0.2%.

How did the “percent Bodipy-positive cells” value [1] turn out when `C=CC(N)CCC(=O)O` (centres undefined) [(?)-gamma-Vinyl GABA] was run?
The value was 11.9 ± 2.3%.

For `CC(C)(C)c1cnc(CSc2cnc(NC(=O)C3CCNCC3)s2)o1`, which “percent Bodipy-positive cells” value [6] is on record?
Its value is 50.2 ± 7.9%.

And the “percent Bodipy-positive cells” value [7]?
The value was 47.6% and 69.9%.

And the “percent Bodipy-positive cells” value [2]?
Its value is 62.7 ± 2.1%.

For `CCCCCCCCCCCCCCCC(=O)OC/C=C(C)/C=C/C=C(C)/C=C/C1=C(C)CCCC1(C)C` [Retinyl palmitate], which “percent Bodipy-positive cells” value [1] is on record?
Its value is 44.4 ± 2%.

How did the “percent Bodipy-positive cells” value [2] turn out when `COc1cc(Br)c(Nc2nc(-c3c(C)nc4ncccn34)cs2)c(Br)c1` was run?
The value was 62% and 54.6%.

And the “percent Bodipy-positive cells” value [1]?
The value was 89.1% and 64.3%.

What does the source list for `O=C(O)CCCCCCCC(=O)O` [Azelaic acid]?
percent Bodipy-positive cells [1]: 51.7% and 39.6%; percent Bodipy-positive cells (library stock concentration: 10.6 mM): 21.7 ± 14%

`CC(=O)OCC(=O)[C@@]1(O)CC[C@H]2[C@@H]3CCC4=CC(=O)CC[C@]4(C)[C@@]3(F)[C@@H](O)C[C@@]21C` [Fludrocortisone acetate] was tested. Which “percent Bodipy-positive cells” value did it give?
Its value is 25.2 ± 2.2%.

What about the “percent Bodipy-positive cells” value (library stock concentration: 4.7 mM) of the same molecule?
The value was 2.56 ± 1.4%.

What about the “percent Bodipy-positive cells” value [1] of the same molecule?
Its value is 7.76 ± 1.9%.

Which “percent Bodipy-positive cells” value [1] does the source give for `CCCn1ncc(-c2ccnc(NC3CC(C)(C)NC(C)(C)C3)n2)c1C` here?
The value was 81.3 ± 0.28%.

With `COc1ccc2c3c([nH]c2c1)[C@H]1C[C@H]2[C@H](C[C@@H](O)[C@H](OC)[C@H]2C(=O)O)CN1CC3` [Reserpinic acid hydrochloride] as the molecule, how does the “percent Bodipy-positive cells” value read?
The value was 6.81 ± 1.1%.

`CC(=Cc1ccc(C(=O)O)cc1)c1ccc2c(c1)C(C)(C)CCC2(C)C` [TTNPB (Arotinoid Acid)] was tested. Which “percent Bodipy-positive cells” value [2] did it give?
Its value is 8.31 ± 0.35%.

What about the “percent Bodipy-positive cells” value [1] of the same molecule?
Its value is 23.6 ± 3.5%.

Which “percent Bodipy-positive cells” value [3] does the source give for `CC(=Cc1ccc(C(=O)O)cc1)c1ccc2c(c1)C(C)(C)CCC2(C)C` here?
Its value is 11.1 ± 6.5%.

What about the “percent Bodipy-positive cells” value [1] of the same molecule?
Its value is 22.4% and 9.27%.

`COC(=O)C1=C(C)NC(C)=C(C(=O)OCCCN2CCC(c3ccccc3)(c3ccccc3)CC2)[C@@H]1c1cccc([N+](=O)[O-])c1` [(R)-(-)-Niguldipine hydrochloride] was tested. Which “percent Bodipy-positive cells” value [1] did it give?
The value was 65 ± 21%.

With `CC(=O)OCC(=O)[C@@]1(O)CC[C@H]2[C@@H]3CCC4=CC(=O)C=C[C@]4(C)[C@@]3(Cl)[C@@H](Cl)C[C@@]21C` as the molecule, how does the “percent Bodipy-positive cells” value [1] read?
Its value is 26.3 ± 14%.

For `CC[N+](C)(CC)CCOC(=O)C1c2ccccc2Oc2ccccc21` [Methantheline bromide], which “percent Bodipy-positive cells” value is on record?
Its value is 8.14 ± 0.48%.

`O=C(O)CN1C(=O)c2cccc3cccc(c23)C1=O` [Alrestatin] was tested. Which “percent Bodipy-positive cells” value (library stock concentration: 7.8 mM) did it give?
Its value is 17.4 ± 0.29%.

What about the “percent Bodipy-positive cells” value [1] of the same molecule?
Its value is 6.46 ± 1.7%.

Which results are given for `CCCCN(CCCC)CCCOC(=O)c1ccc(N)cc1` [Butacaine]?
percent Bodipy-positive cells: 10.06 ± 0.079%; percent Bodipy-positive cells [1]: 50.2 ± 0.53%

`COC(=O)Nc1nc2cc(C(=O)c3cccs3)ccc2[nH]1` [Nocodazole] was tested. Which “percent Bodipy-positive cells” value [2] did it give?
The value was 29.4 ± 10%.

And the “percent Bodipy-positive cells” value (library stock concentration: 6.6 mM)?
Its value is 19.7 ± 5%.

With `Cc1ccc(C(=O)c2ccc(CC(=O)O)n2C)cc1` [Tolmetin sodium salt dihydrate] as the molecule, how does the “percent Bodipy-positive cells” value read?
The value was 8.48 ± 0.17%.

Which results are given for `Cc1ccc(C(=O)c2ccc(CC(=O)O)n2C)cc1` [Tolmetin sodium]?
percent Bodipy-positive cells (library stock concentration: 7.2 mM): 9.32 ± 3.4%; percent Bodipy-positive cells [1]: 44 ± 26%

What does the source list for `NNCCc1ccccc1` [Phenelzine sulfate]?
percent Bodipy-positive cells: 33.6 ± 4.6%; percent Bodipy-positive cells [1]: 17.3% and 10.6%

Which “percent Bodipy-positive cells” value [1] does the source give for `NNCCc1ccccc1` here?
Its value is 9.21 ± 0.62%.

Which “percent Bodipy-positive cells” value [1] does the source give for `NNCCc1ccccc1` [Phenelzine] here?
The value was 36.5 ± 5.2%.

How did the “percent Bodipy-positive cells” value [1] turn out when `Cc1nccnc1N1CCCCC1` was run?
The value was 34 ± 6.8%.

Which results are given for `C=C1CC[C@H](O)C/C1=C/C=C1\CCC[C@]2(C)[C@@H]([C@H](C)CCCC(C)C)CC[C@@H]12` [Cholecalciferol]?
percent Bodipy-positive cells: 20.9 ± 7.1%; percent Bodipy-positive cells (library stock concentration: 5.2 mM): 5.31 ± 1.9%
